Data as given in patent EP4834373A1, “CYCLIC DINUCLEOTIDE COMPOUND, CONJUGATE THEREOF, AND USE THEREOF” (dated 2026).
The match of structure and compound is tentative.

Tested on: Mouse colon cancer CT26-hHER2 cells
Test: In vivo efficacy, mouse colon cancer CT26-hHER2 subcutaneous xenograft model
Conditions: 0.3 mg/kg i.t. QW×2
Procedure: Cell culture: Mouse colon cancer CT26-hHER2 cells were maintained as monolayers in RPMI-1640 medium containing 10% fetal bovine serum at 37°C in a constant temperature incubator with 5% CO2. Cells were subcultured twice weekly after treatment with trypsin-EDTA. Cells in the exponential growth phase were harvested and counted for inoculation.
Experimental animals: BALB/c mice, 6-8 weeks, 16-18 g, purchased from Beijing Vital River Laboratory Animal Technology Co., Ltd.
12 experimental groups were set for Trastuzumab + I-3, II-4, II-6, II-38, II-43, II-42, II-44, II-49, II-53, II-57, and II-58, as shown in Table 10 below: Table 10
Experimental method: CT26-hHER2 cell line (3.0 × 10^6/mouse) was inoculated subcutaneously on the right back of experimental mice. The inoculation volume of each mouse was 0.1 mL. The growth of the tumor was observed regularly. When the tumor grew to about 100 mm^3, the mice were randomly grouped according to the size of the tumor and their body weights, and the drug was administered in accordance with the administration schedule, and the body weights and tumor sizes of the mice were measured two times per week throughout the experimental process.
Tumor size calculation formula: tumor volume (mm^3) = 0.5 × (tumor long diameter × tumor short diameter^2).

CO[C@H]1[C@H]2O[P@](=O)(S)OC[C@H]3O[C@@H](n4cnc5c(N)ncnc54)[C@H](F)[C@@H]3O[P@](=O)(S)OC[C@H]1O[C@H]2n1c(=O)sc2c(N)ncnc21
Tumor volume (Day 24, mm^3): 292.9±81.0 mm^3
T/C (%) (Day 24): 14.2%
TGI (%) (Day 24): 85.9%
